# Screening data, single-dose tests

Chains of the proteins cited; added tags and fusions are not shown. Residues count along the entry.
UniProt P9WNZ1, whole entry: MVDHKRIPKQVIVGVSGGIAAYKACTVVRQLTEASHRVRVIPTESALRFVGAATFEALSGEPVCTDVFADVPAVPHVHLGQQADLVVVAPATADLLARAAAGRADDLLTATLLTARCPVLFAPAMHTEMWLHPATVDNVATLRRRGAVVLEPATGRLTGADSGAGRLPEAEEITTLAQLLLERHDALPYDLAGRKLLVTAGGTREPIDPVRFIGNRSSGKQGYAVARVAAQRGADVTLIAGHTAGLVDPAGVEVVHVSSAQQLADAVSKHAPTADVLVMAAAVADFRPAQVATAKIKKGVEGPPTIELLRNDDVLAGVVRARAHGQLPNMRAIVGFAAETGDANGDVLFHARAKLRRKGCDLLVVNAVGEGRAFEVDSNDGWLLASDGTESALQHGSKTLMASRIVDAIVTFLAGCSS
UniProt P9WFT3, whole entry: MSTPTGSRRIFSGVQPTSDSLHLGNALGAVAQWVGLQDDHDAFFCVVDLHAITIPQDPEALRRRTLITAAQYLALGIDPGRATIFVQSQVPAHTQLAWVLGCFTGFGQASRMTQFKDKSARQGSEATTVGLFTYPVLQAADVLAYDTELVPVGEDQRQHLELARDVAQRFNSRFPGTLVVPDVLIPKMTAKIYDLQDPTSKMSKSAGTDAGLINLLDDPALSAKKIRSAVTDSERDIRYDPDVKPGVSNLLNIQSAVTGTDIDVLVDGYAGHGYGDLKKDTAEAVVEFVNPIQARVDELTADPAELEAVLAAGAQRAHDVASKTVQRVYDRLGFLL
UniProt Q4DA54, 1-478: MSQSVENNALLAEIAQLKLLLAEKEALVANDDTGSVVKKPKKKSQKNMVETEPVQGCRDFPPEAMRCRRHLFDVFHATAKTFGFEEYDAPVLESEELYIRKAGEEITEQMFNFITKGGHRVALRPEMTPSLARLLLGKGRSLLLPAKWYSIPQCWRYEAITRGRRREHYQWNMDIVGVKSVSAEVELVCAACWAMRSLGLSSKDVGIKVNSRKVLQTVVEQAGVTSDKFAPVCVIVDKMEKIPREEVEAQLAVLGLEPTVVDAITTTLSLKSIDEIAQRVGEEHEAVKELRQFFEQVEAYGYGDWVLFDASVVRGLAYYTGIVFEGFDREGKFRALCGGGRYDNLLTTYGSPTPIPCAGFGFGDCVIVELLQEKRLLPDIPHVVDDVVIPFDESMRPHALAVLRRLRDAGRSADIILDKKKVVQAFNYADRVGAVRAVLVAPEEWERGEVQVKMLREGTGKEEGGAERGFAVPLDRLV
UniProt Q8IDJ8, 1-583: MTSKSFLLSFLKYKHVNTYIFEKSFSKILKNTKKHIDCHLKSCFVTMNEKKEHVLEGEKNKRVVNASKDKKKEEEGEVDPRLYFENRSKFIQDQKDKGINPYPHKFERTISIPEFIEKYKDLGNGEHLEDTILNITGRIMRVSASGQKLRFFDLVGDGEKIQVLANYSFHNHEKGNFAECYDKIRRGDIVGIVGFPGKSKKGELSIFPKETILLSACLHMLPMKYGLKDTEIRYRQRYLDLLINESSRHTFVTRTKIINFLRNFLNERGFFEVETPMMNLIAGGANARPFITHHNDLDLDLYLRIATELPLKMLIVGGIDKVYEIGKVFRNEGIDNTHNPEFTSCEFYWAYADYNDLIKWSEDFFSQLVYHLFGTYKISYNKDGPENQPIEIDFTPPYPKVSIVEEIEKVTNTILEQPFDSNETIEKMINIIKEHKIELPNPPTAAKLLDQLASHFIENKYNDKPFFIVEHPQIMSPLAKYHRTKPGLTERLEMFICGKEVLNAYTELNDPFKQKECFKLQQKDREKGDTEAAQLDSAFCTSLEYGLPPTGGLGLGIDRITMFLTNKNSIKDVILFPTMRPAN

The values are deposited in ChEMBL (CHEMBL3988442, “University of Dundee, Small-Polar-MMV Screening Library” (2021)).

Results are given as percent effect.
The record does not define 0% and 100%; most values in the screen are far below 50% and negative numbers occur (in some assays of this library far below -100).
Compounds were drawn at random from those tested, without regard to their results.

CoaBC: 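Coenzyme A biosynthesis protein CoaBC, Mycobacterium tuberculosis (UniProt P9WNZ1). Enzyme assay of CoaBC with a phosphate dye (Biomol Green) read at 650 nm. Concentration: 30 µM. Higher reads as stronger inhibition, judged from the few compounds that gave an IC50. Most strong results did not repeat in a second test. Size under these conditions: about 67,000 compounds, about 40 of them at 50% or above in at least one test.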
MtTrpRS: 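Enzyme assay of tryptophanyl-tRNA synthetase; the read-out is not stated. Target: Tryptophan-tRNA ligase, Mycobacterium tuberculosis (UniProt P9WFT3). Compounds at 10 µM. Direction is not recorded; retested compounds ran higher, which suggests that high means inhibition. Size under these conditions: about 65,000 compounds, about 64 of them at 50% or above in at least one test.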
TcHisRS: 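Enzyme assay of histidyl-tRNA synthetase; the read-out is not stated. Target: Histidine-tRNA ligase, Trypanosoma cruzi CL Brener (UniProt Q4DA54). Concentration: 30 µM. Higher reads as stronger inhibition (inferred: compounds with an IC50 in retests scored well above the rest). Of about 69,000 compounds tested this way, about 31 (0.045%) reached 50% or more in at least one test.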
PfKRS1: 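Lysine-tRNA ligase, Plasmodium falciparum 3D7 (UniProt Q8IDJ8). Enzyme assay of the cytosolic lysyl-tRNA synthetase in 384-well plates, read by luminescence. Concentration: 30 µM. Higher reads as stronger inhibition, judged from the few compounds that gave an IC50. Size under these conditions: about 69,000 compounds, about 49 of them at 50% or above in at least one test.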

{"compound": "CCOc1nnc(CN2CCOC(CNc3cccnn3)C2)s1", "stereo": "stereo not shown", "CoaBC": -0.7229, "MtTrpRS": 0.2398, "TcHisRS": -1.527, "PfKRS1": 0.2898}
{"compound": "CN(Cc1nc(-c2ccccc2)no1)Cc1cnc(N2CCOCC2)s1", "CoaBC": 0.9877, "MtTrpRS": -12.37, "TcHisRS": 8.458, "PfKRS1": -0.1164}
{"compound": "Cc1ccc(-c2c[nH]c([C@@H]3COCCN3Cc3ncc[nH]3)n2)cc1", "CoaBC": 11.59, "MtTrpRS": 3.89, "TcHisRS": -3.483, "PfKRS1": 1.536}
{"compound": "CNC(=O)c1ccnc(N2CCCC(COc3cccc(C)c3)C2)c1", "stereo": "stereo not shown", "CoaBC": 3.893, "MtTrpRS": -2.687, "TcHisRS": 4.242, "PfKRS1": 1.583}
{"compound": "c1nnc(Nc2cncc(C3CCCN3CC3CC3)n2)s1", "stereo": "stereo not shown", "CoaBC": 9.026, "MtTrpRS": -0.3397, "TcHisRS": 2.308, "PfKRS1": 2.455}
{"compound": "N#CCCNC(=O)CSc1cc(F)ccc1F", "CoaBC": 5.556, "MtTrpRS": 2.43, "TcHisRS": 6.122, "PfKRS1": 6.518}
{"compound": "Fc1ccccc1OCCc1cc(C2CNCCO2)n[nH]1", "stereo": "stereo not shown", "CoaBC": -4.38, "MtTrpRS": 0.2898, "TcHisRS": 1.493, "PfKRS1": 1.912}
{"compound": "O=C1NCCCCC1NC(=O)C1(c2cccc(Cl)c2)CC1", "stereo": "stereo not shown", "CoaBC": 1.818, "MtTrpRS": 0.6734, "TcHisRS": 1.02, "PfKRS1": 4.083}
{"compound": "Fc1cccc2[nH]c(CN3CCn4c(nnc4C4CC4)C3)nc12", "CoaBC": 3.883, "MtTrpRS": -5.176, "TcHisRS": 9.392, "PfKRS1": 3.394}
{"compound": "O=C(c1ccnnc1)N1CCc2onc(Cn3cccn3)c2C1", "CoaBC": -1.261, "MtTrpRS": -1.221, "TcHisRS": 4.132, "PfKRS1": 6.052}
{"compound": "COCCCOc1ccc(C(=O)N(C)CCC(C)C)cn1", "CoaBC": 11.16, "MtTrpRS": 1.231, "TcHisRS": 3.333, "PfKRS1": -2.333}
{"compound": "O=C(Nc1ccccc1)N1CCn2nnc(COc3cccnc3)c2C1", "CoaBC": 0.1287, "MtTrpRS": 1.055, "TcHisRS": 1.639, "PfKRS1": 2.683}
{"compound": "COCCCNc1c(C#N)c2c(c3nncn13)CN(C)CC2", "CoaBC": 4.81, "MtTrpRS": 3.885, "TcHisRS": 4.878, "PfKRS1": 4.075}
{"compound": "Cc1cn(-c2ccccc2)nc1NS(=O)(=O)c1ccc(C(=O)O)cc1", "CoaBC": 1.392, "MtTrpRS": 1.088, "TcHisRS": 2.439, "PfKRS1": 9.826}
{"compound": "O=C(Nc1cnccn1)[C@@H]1CCO[C@@H]2CCN(Cc3ccsc3)C[C@@H]21", "CoaBC": 1.5, "MtTrpRS": -0.4691, "TcHisRS": 4.902, "PfKRS1": 5.284}
{"compound": "Cc1nccnc1C1CCN(C(=O)C(C)C)CC1", "CoaBC": 0.5256, "MtTrpRS": -3.594, "TcHisRS": 9.091, "PfKRS1": 0.7256}
{"compound": "O=C1CC(c2cccs2)c2snc(C(=O)O)c2N1", "stereo": "stereo not shown", "CoaBC": 9.705, "MtTrpRS": -4.739, "TcHisRS": 4.065, "PfKRS1": 5.804}
{"compound": "Cc1nc(C)n(CC2CCCN(CC(=O)Nc3nnc(C)s3)C2)n1", "stereo": "stereo not shown", "CoaBC": 5.371, "MtTrpRS": 22.78, "TcHisRS": -7.647, "PfKRS1": -1.708}
{"compound": "CCc1nc2c(c(C)c(C)n2Cc2cccnc2)c(N)c1C", "CoaBC": 4.245, "MtTrpRS": -2.463, "TcHisRS": -2.062, "PfKRS1": 3.143}
{"compound": "c1cnc(N2CCOCC3(CNCCO3)C2)nc1", "stereo": "stereo not shown", "CoaBC": -2.596, "MtTrpRS": -3.108, "TcHisRS": 4.082, "PfKRS1": -0.1865}
{"compound": "c1cc(COC[C@]23COC[C@H]2CN(Cc2ccsc2)C3)ccn1", "CoaBC": 3.043, "MtTrpRS": -2.215, "TcHisRS": 10.92, "PfKRS1": 2.474}
{"compound": "Cc1ccc2c(c1)CCC21CCN(C(=O)CO)CC1", "CoaBC": 10, "MtTrpRS": 1.243, "TcHisRS": 0.8368, "PfKRS1": 1.97}

Once more, the final 2:

{"compound": "c1cc(COC[C@]23COC[C@H]2CN(Cc2ccsc2)C3)ccn1", "CoaBC": 3.043, "MtTrpRS": -2.215, "TcHisRS": 10.92, "PfKRS1": 2.474}
{"compound": "Cc1ccc2c(c1)CCC21CCN(C(=O)CO)CC1", "CoaBC": 10, "MtTrpRS": 1.243, "TcHisRS": 0.8368, "PfKRS1": 1.97}